Measured values from the supplement of paper PMC6411743.
± gives the standard deviation of the averaged measurements. Only a part is listed here, and it is no random draw. Small differences around the control level are noise.

Chains of the proteins cited; added tags and fusions are not shown. Lines headed by an entry give the natural chain unless they say otherwise; changes in a name come on top.
UniProt Q96JC1: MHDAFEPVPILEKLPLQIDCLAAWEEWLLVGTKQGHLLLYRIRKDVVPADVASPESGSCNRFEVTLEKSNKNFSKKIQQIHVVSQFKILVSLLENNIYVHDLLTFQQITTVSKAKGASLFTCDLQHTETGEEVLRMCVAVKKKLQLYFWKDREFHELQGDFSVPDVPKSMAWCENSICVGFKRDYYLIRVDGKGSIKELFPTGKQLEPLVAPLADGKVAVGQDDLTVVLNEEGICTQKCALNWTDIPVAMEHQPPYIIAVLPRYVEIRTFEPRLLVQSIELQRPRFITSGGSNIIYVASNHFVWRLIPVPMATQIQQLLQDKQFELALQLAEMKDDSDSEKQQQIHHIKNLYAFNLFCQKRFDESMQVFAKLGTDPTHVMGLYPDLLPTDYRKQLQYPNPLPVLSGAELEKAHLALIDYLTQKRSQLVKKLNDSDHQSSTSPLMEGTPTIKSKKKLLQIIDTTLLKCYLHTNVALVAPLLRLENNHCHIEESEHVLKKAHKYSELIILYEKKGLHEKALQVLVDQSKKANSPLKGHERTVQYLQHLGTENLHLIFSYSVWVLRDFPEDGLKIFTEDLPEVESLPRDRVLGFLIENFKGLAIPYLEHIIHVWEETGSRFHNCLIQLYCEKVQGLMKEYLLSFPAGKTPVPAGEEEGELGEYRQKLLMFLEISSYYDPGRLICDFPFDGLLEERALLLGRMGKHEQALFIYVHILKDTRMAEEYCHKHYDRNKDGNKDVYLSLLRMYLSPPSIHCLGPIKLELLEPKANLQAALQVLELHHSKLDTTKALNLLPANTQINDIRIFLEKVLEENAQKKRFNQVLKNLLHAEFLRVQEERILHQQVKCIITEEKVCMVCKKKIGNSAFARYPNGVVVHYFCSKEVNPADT
UniProt Q96CN7: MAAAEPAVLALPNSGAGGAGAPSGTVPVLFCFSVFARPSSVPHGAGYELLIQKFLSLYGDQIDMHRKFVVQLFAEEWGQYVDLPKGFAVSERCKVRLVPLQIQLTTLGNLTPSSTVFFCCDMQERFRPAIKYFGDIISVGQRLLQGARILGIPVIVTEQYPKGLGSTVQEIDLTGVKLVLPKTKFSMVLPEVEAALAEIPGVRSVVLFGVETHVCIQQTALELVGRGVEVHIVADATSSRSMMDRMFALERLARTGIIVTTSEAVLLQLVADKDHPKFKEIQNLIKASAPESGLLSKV
UniProt Q96JG6: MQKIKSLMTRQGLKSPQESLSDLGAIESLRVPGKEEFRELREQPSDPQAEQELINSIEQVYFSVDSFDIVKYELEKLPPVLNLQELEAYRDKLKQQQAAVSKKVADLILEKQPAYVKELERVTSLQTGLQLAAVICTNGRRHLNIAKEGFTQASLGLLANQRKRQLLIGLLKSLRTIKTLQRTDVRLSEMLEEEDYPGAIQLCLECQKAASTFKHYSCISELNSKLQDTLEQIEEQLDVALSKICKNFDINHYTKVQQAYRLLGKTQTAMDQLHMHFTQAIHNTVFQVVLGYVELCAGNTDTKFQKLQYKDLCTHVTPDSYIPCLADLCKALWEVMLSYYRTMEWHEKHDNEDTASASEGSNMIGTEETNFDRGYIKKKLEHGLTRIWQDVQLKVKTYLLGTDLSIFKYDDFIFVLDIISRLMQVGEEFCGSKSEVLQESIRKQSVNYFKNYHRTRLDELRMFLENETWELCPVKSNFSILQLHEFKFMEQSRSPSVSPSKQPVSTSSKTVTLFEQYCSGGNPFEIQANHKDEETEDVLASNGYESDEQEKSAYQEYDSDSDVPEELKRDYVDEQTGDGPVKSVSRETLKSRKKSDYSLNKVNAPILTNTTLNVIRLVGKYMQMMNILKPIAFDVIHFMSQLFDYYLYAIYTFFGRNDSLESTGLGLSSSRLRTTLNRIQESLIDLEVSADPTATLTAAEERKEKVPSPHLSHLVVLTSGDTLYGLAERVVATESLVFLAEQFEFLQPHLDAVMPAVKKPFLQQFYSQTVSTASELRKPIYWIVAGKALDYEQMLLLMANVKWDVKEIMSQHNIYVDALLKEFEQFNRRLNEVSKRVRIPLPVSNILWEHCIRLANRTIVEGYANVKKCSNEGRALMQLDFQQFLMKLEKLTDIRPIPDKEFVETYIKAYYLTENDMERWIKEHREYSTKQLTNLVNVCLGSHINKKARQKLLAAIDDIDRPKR
UniProt Q96PU8: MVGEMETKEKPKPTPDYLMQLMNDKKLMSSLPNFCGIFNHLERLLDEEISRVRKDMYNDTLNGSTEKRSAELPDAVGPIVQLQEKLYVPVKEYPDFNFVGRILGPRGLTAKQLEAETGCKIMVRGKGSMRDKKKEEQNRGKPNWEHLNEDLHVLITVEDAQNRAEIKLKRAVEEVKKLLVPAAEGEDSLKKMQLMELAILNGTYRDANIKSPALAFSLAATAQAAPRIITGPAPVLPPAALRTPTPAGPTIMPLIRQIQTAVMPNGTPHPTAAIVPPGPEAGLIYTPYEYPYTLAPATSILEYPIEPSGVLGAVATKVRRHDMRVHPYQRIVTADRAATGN
UniProt Q96E52: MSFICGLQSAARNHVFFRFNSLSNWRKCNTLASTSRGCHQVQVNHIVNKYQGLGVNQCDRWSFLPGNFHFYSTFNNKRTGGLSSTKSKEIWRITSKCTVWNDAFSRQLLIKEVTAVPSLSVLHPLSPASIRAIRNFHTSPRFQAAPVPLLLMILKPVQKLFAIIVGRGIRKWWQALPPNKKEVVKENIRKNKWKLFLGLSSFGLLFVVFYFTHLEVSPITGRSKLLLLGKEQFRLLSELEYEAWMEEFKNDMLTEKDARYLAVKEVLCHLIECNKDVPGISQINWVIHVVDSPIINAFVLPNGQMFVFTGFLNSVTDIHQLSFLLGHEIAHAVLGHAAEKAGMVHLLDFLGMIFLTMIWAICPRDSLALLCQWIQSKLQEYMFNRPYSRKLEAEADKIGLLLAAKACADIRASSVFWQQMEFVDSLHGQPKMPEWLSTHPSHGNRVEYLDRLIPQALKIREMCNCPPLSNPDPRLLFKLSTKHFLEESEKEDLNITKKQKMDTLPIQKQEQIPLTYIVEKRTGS
UniProt Q96HA8: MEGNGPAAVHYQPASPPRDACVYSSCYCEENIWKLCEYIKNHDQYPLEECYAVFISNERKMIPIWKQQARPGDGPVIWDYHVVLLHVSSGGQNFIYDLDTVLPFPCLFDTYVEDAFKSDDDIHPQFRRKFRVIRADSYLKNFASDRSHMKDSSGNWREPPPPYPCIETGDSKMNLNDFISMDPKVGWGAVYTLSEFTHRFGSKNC
UniProt Q96IG2: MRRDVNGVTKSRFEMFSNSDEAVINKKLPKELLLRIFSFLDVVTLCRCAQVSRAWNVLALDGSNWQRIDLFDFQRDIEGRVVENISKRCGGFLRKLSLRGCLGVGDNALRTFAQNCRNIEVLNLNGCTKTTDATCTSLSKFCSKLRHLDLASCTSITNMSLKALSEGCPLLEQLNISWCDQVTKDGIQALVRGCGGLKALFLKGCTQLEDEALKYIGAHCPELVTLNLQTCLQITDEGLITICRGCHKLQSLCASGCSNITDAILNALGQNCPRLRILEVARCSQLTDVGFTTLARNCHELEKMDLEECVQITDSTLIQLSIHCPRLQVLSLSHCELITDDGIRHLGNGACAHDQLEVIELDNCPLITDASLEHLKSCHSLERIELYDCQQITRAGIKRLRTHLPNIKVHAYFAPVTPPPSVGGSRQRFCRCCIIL
UniProt Q96FH0: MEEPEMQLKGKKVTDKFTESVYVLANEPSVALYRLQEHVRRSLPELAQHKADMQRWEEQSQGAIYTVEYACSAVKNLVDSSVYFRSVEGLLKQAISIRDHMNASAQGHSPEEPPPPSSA
UniProt Q96HE7: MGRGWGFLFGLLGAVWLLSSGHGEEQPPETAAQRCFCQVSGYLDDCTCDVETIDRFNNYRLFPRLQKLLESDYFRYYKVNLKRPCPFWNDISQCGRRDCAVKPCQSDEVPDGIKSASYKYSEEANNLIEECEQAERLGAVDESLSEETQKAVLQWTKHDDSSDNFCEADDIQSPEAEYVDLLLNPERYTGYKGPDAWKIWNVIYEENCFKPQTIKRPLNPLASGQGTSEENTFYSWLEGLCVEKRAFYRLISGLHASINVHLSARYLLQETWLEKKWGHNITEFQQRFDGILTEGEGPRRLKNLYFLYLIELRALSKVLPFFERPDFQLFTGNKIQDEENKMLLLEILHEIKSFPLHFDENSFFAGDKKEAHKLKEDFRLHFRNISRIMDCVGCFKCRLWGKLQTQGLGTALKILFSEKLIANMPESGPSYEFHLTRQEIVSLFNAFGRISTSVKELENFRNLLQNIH
UniProt Q96D53: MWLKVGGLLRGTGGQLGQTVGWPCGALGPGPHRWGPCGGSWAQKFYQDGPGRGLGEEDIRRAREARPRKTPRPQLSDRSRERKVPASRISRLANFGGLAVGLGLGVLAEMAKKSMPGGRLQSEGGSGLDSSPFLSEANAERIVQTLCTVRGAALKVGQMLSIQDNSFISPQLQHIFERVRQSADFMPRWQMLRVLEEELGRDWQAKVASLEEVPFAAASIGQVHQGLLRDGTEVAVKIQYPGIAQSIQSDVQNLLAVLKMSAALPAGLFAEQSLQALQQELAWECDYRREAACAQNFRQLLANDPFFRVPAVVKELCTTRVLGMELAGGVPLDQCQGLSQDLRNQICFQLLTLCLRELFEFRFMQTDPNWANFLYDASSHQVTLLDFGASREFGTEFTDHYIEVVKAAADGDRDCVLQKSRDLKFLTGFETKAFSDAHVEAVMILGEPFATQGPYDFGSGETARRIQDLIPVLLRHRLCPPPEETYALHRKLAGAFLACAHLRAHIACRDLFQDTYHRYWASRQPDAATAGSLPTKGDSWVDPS
UniProt Q96EQ0: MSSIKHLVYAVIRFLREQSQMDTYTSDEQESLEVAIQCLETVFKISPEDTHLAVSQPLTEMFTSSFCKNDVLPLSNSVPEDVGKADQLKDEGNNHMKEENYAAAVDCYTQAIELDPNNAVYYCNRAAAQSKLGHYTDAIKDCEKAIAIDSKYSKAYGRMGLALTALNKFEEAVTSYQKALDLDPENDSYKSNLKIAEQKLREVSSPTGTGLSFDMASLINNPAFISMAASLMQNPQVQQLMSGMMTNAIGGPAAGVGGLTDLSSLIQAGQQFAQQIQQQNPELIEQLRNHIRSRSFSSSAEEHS
UniProt Q96H79: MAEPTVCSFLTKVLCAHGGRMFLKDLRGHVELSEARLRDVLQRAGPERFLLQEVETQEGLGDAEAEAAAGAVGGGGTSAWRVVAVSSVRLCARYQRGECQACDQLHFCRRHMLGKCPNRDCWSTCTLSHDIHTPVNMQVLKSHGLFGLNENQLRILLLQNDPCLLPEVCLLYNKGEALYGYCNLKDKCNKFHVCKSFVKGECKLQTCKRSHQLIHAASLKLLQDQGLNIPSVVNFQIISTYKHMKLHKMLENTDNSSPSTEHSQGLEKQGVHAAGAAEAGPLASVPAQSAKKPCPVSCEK

Compound: Nc1ncnc2c1ncn2[C@@H]1O[C@H](COP(=O)(O)OP(=O)(O)OP(=O)(O)O)[C@@H](O)[C@H]1O [adenosine triphosphate]
Assay: NP40-soluble protein abundance relative to vehicle (solubility fold change) (ratio); higher = more soluble protein in presence of ATP
Conditions: concentration: 0.1mM
Method in brief: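 In three independent experiments, Jurkat crude lysate made by Dounce homogenisation was treated for 10 min at room temperature and then 3 min at 37 °C with eight concentrations ranging from 0.1 to 10 mM. It was then solubilised with 0.8% NP40 plus benzonase for 60 min at 4 °C and ultracentrifuged. The supernatant was TMT-labelled for LC-MS/MS, and each value is the fold change against the detergent-processed vehicle for the same replicate, using vsn-normalised intensities.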

Q: With UniProt Q96JC1 and related entries as the target, how does the NP40-soluble protein abundance read?
A: 1.07 ± 0.085

Q: Which NP40-soluble protein abundance does the source give for ISOC1 (UniProt Q96CN7) here?
A: 1.02 ± 0.087

Q: How did the NP40-soluble protein abundance turn out when LENG1 (UniProt Q96BZ8) was run?
A: 0.946 ± 0.08

Q: With MTFMT (UniProt Q96DP5) as the target, how does the NP40-soluble protein abundance read?
A: 1.1 ± 0.025

Q: How did the NP40-soluble protein abundance turn out when UniProt Q96JG6 was run?
A: 1.04 ± 0.034

Q: NSL1 (UniProt Q96IY1) was tested. Which NP40-soluble protein abundance did it give?
A: 1.03 ± 0.051

Q: How did the NP40-soluble protein abundance turn out when ALKBH3 (UniProt Q96Q83) was run?
A: 1.01 ± 0.05

Q: Which NP40-soluble protein abundance does the source give for UniProt Q96F46 and related entries here?
A: 0.947 ± 0.057

Q: UniProt Q96GJ1-2 was tested. Which NP40-soluble protein abundance did it give?
A: 1.17 ± 0.23

Q: How did the NP40-soluble protein abundance turn out when PRRC1 (UniProt Q96M27) was run?
A: 0.968 ± 0.032

Q: Which NP40-soluble protein abundance does the source give for UniProt Q96PE3 and related entries here?
A: 1.04 ± 0.082

Q: How did the NP40-soluble protein abundance turn out when UniProt Q96K17 was run?
A: 0.91 ± 0.1

Q: For FAM122A (UniProt Q96E09), which NP40-soluble protein abundance is on record?
A: 1 ± 0.09

Q: With UniProt Q96JK2 and related entries as the target, how does the NP40-soluble protein abundance read?
A: 1.01 ± 0.018

Q: How did the NP40-soluble protein abundance turn out when RBM18 (UniProt Q96H35) was run?
A: 0.783 ± 0.11

Q: Which NP40-soluble protein abundance does the source give for UniProt Q96PU8 and related entries here?
A: 0.957 ± 0.039

Q: OMA1 (UniProt Q96E52) was tested. Which NP40-soluble protein abundance did it give?
A: 1.07 ± 0.12

Q: Which NP40-soluble protein abundance does the source give for WDYHV1 (UniProt Q96HA8) here?
A: 1.03 ± 0.028

Q: With UniProt Q96IG2 and related entries as the target, how does the NP40-soluble protein abundance read?
A: 1.04 ± 0.024

Q: Which NP40-soluble protein abundance does the source give for ATG2B (UniProt Q96BY7) here?
A: 1 ± 0.06

Q: How did the NP40-soluble protein abundance turn out when UniProt Q96EY5 was run?
A: 1.06 ± 0.06

Q: For UniProt Q96CG8 and related entries, which NP40-soluble protein abundance is on record?
A: 0.976 ± 0.04

Q: For SMG1 (UniProt Q96Q15), which NP40-soluble protein abundance is on record?
A: 1.03 ± 0.039

Q: For NARS2 (UniProt Q96I59), which NP40-soluble protein abundance is on record?
A: 1.07 ± 0.084

Q: With ADO (UniProt Q96SZ5) as the target, how does the NP40-soluble protein abundance read?
A: 0.986 ± 0.037

Q: For UniProt Q96FH0 and related entries, which NP40-soluble protein abundance is on record?
A: 0.831 ± 0.086

Q: With UniProt Q96HE7 as the target, how does the NP40-soluble protein abundance read?
A: 0.943 ± 0.047

Q: SPEN (UniProt Q96T58) was tested. Which NP40-soluble protein abundance did it give?
A: 1.031 ± 0.0038

Q: For IPO9 (UniProt Q96P70), which NP40-soluble protein abundance is on record?
A: 0.972 ± 0.019

Q: Which NP40-soluble protein abundance does the source give for UniProt Q96D53 here?
A: 1.09 ± 0.034

Q: Which NP40-soluble protein abundance does the source give for UniProt Q96BR5 here?
A: 0.978 ± 0.052

Q: Which NP40-soluble protein abundance does the source give for UniProt Q96JJ7 here?
A: 1.03 ± 0.035

Q: For SGTB (UniProt Q96EQ0), which NP40-soluble protein abundance is on record?
A: 0.896 ± 0.22

Q: With ZC3HAV1L (UniProt Q96H79) as the target, how does the NP40-soluble protein abundance read?
A: 1 ± 0.037

Q: UniProt Q96P16 and related entries was tested. Which NP40-soluble protein abundance did it give?
A: 1.03 ± 0.03

Q: Which NP40-soluble protein abundance does the source give for ANKRD27 (UniProt Q96NW4) here?
A: 1.06 ± 0.06

Q: How did the NP40-soluble protein abundance turn out when Sirt1 (UniProt Q96EB6) was run?
A: 0.959 ± 0.02

Same assay, conditions: concentration: 0.5mM

Q: UniProt Q96JC1 and related entries was tested. Which NP40-soluble protein abundance did it give?
A: 0.971 ± 0.13

Q: How did the NP40-soluble protein abundance turn out when ISOC1 (UniProt Q96CN7) was run?
A: 0.99 ± 0.024

Q: With LENG1 (UniProt Q96BZ8) as the target, how does the NP40-soluble protein abundance read?
A: 0.86 ± 0.11

Q: How did the NP40-soluble protein abundance turn out when MTFMT (UniProt Q96DP5) was run?
A: 1.2 ± 0.074

Q: Which NP40-soluble protein abundance does the source give for UniProt Q96JG6 here?
A: 1 ± 0.053

Q: With NSL1 (UniProt Q96IY1) as the target, how does the NP40-soluble protein abundance read?
A: 0.979 ± 0.047

Q: For ALKBH3 (UniProt Q96Q83), which NP40-soluble protein abundance is on record?
A: 1.01 ± 0.06

Q: With UniProt Q96F46 and related entries as the target, how does the NP40-soluble protein abundance read?
A: 0.926 ± 0.027

Q: UniProt Q96GJ1-2 was tested. Which NP40-soluble protein abundance did it give?
A: 1.09 ± 0.11

Q: For PRRC1 (UniProt Q96M27), which NP40-soluble protein abundance is on record?
A: 0.954 ± 0.019

Q: For UniProt Q96PE3 and related entries, which NP40-soluble protein abundance is on record?
A: 1.02 ± 0.064

Q: UniProt Q96K17 was tested. Which NP40-soluble protein abundance did it give?
A: 0.947 ± 0.079

Q: How did the NP40-soluble protein abundance turn out when FAM122A (UniProt Q96E09) was run?
A: 0.952 ± 0.092

Q: With UniProt Q96JK2 and related entries as the target, how does the NP40-soluble protein abundance read?
A: 0.999 ± 0.045

Q: How did the NP40-soluble protein abundance turn out when RBM18 (UniProt Q96H35) was run?
A: 0.81383 ± 0.00027

Q: UniProt Q96PU8 and related entries was tested. Which NP40-soluble protein abundance did it give?
A: 0.953 ± 0.056

Q: Which NP40-soluble protein abundance does the source give for OMA1 (UniProt Q96E52) here?
A: 1.08 ± 0.14

Q: How did the NP40-soluble protein abundance turn out when WDYHV1 (UniProt Q96HA8) was run?
A: 0.991 ± 0.043

Q: How did the NP40-soluble protein abundance turn out when UniProt Q96IG2 and related entries was run?
A: 0.96 ± 0.043

Q: Which NP40-soluble protein abundance does the source give for ATG2B (UniProt Q96BY7) here?
A: 0.887 ± 0.079

Q: With UniProt Q96EY5 as the target, how does the NP40-soluble protein abundance read?
A: 1.06 ± 0.061

Q: Which NP40-soluble protein abundance does the source give for UniProt Q96CG8 and related entries here?
A: 0.967 ± 0.042

Q: With SMG1 (UniProt Q96Q15) as the target, how does the NP40-soluble protein abundance read?
A: 1.02 ± 0.019

Q: With NARS2 (UniProt Q96I59) as the target, how does the NP40-soluble protein abundance read?
A: 1.01 ± 0.073

Q: How did the NP40-soluble protein abundance turn out when ADO (UniProt Q96SZ5) was run?
A: 0.975 ± 0.062

Q: For UniProt Q96FH0 and related entries, which NP40-soluble protein abundance is on record?
A: 0.858 ± 0.0099

Q: With UniProt Q96HE7 as the target, how does the NP40-soluble protein abundance read?
A: 0.986 ± 0.018

Q: For SPEN (UniProt Q96T58), which NP40-soluble protein abundance is on record?
A: 1.08 ± 0.024

Q: With IPO9 (UniProt Q96P70) as the target, how does the NP40-soluble protein abundance read?
A: 0.993 ± 0.034

Q: For UniProt Q96D53, which NP40-soluble protein abundance is on record?
A: 1.14 ± 0.039

Q: With UniProt Q96BR5 as the target, how does the NP40-soluble protein abundance read?
A: 0.981 ± 0.04

Q: UniProt Q96JJ7 was tested. Which NP40-soluble protein abundance did it give?
A: 0.995 ± 0.016

Q: With SGTB (UniProt Q96EQ0) as the target, how does the NP40-soluble protein abundance read?
A: 0.877 ± 0.23

Q: Which NP40-soluble protein abundance does the source give for ZC3HAV1L (UniProt Q96H79) here?
A: 0.993 ± 0.048

Q: UniProt Q96P16 and related entries was tested. Which NP40-soluble protein abundance did it give?
A: 0.99 ± 0.034

Q: For ANKRD27 (UniProt Q96NW4), which NP40-soluble protein abundance is on record?
A: 1 ± 0.034

Q: How did the NP40-soluble protein abundance turn out when Sirt1 (UniProt Q96EB6) was run?
A: 0.973 ± 0.013
